Counter-ions that a name gives are not always drawn. This is one part of the list. Repeats are few or missing, and single values can be far off.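 Labelled rat cortical synaptosomes were engulfed by primary human fetal astrocytes. Engulfment equaled a red/green ratio, corrected for calcein live-cell signal and normalized to the plate median. Compounds were toxic when calcein dropped over 30%, and reduced phagocytosis when below 70% of the median above 5 µM.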
What was measured:
Human fetal astrocytes [1] = assay: loss of total cells relative to no-compound high-control median (toxicity); higher = more toxic (fewer cells); conditions: 24 h
Human fetal astrocytes [2] = assay: synaptosome phagocytosis (pHrodo/calcein intensity ratio) relative to plate median of data wells; higher = more phagocytosis; conditions: 24 h

Compound | loss of total cells (Human fetal astrocytes [1]; 1.39 µM) [%] | loss of total cells (Human fetal astrocytes [1]; 2.78 µM) [%] | loss of total cells (Human fetal astrocytes [1]; 5.56 µM) [%] | loss of total cells (Human fetal astrocytes [1]; 11.11 µM) [%] | loss of total cells (Human fetal astrocytes [1]; 22.22 µM) [%] | synaptosome phagocytosis (Human fetal astrocytes [2]; 1.39 µM) [%] | synaptosome phagocytosis (Human fetal astrocytes [2]; 2.78 µM) [%] | synaptosome phagocytosis (Human fetal astrocytes [2]; 5.56 µM) [%] | synaptosome phagocytosis (Human fetal astrocytes [2]; 11.11 µM) [%] | synaptosome phagocytosis (Human fetal astrocytes [2]; 22.22 µM) [%]
C[C@@H]1O[C@@H](O[C@H]2C[C@@H](O)[C@]3(CO)[C@H]4[C@H](O)C[C@]5(C)[C@@H]([C@@H]6COC(=O)C6)CC[C@]5(O)[C@@H]4CC[C@]3(O)C2)[C@H](O)[C@H](O)[C@H]1O [Dihydroouabain] | 19.7 | 11.1 | 1.6 | 7.6 | 23.2 | 165 | 154 | 150 | 81.6 | 63
CC(C)N(CCC(C(N)=O)(c1ccccc1)c1ccccn1)C(C)C (stereo not given) [Disopyramide phosphate] | -4.6 | -10.3 | -6.6 | -7.6 | 12 | 110 | 111 | 115 | 117 | 143
S=C(NC1CCCCC1)N1CCC(c2cnc[nH]2)CC1 [Thioperamide maleate] | -8.4 | -4.5 | 7.3 | 7.3 | 4.1 | 106 | 108 | 100 | 107 | 95.3
C=CCN1CC[C@]23CCCC[C@H]2[C@H]1Cc1ccc(O)cc13 [Levallorphan tartrate] | -10.9 | 5.9 | 9.9 | -4.8 | 11.2 | 97.2 | 80.9 | 116 | 86.6 | 95
NCC#Cc1ccccc1 [3-Phenylpropargylamine hydrochloride] | -10.2 | -31.4 | -0.6 | 9.6 | 4.9 | 107 | 126 | 132 | 96 | 33.3
C=CCc1ccccc1OCC(O)CNC1(C)CCC(C(C)(C)NC(=O)CBr)CC1 (stereo not given) [Bromoacetyl alprenolol menthane] | -26.1 | -23.5 | -7.8 | 35.4 | 78.6 | 81.1 | 101 | 80.3 | 24.1 | 28.2
CCNC(=O)[C@H]1O[C@@H](n2cnc3c(N)ncnc32)[C@H](O)[C@@H]1O [5'-N-Ethylcarboxamidoadenosine] | -12.1 | -29.9 | -20.6 | -23.8 | 0 | 95.5 | 93.7 | 90.8 | 96 | 90.3
c1ccc2sc(C3(N4CCCCC4)CCCCC3)cc2c1 [BTCP hydrochloride] | -21.7 | -13.8 | -16.1 | -15.7 | 3.4 | 90.3 | 94.8 | 86 | 71.7 | 80.2
CC[C@H]1CN2CCc3cc(OC)c(OC)cc3[C@@H]2C[C@@H]1C[C@H]1NCCc2cc(OC)c(OC)cc21 [Emetine dihydrochloride hydrate] | -7.9 | -23.9 | -4.1 | -48 | -19.2 | 53.1 | 42 | 32.9 | 47.6 | 25
CCCCCCCCCCCCCC(=O)O[C@@H]1[C@@H](C)[C@@]2(O)[C@@H](C=C(CO)C[C@]3(O)C(=O)C(C)=C[C@@H]23)[C@@H]2C(C)(C)[C@]12OC(C)=O [Phorbol 12-myristate 13-acetate] | 17.1 | 22.5 | 24.7 | 38.7 | 19.8 | 88 | 91 | 88.3 | 62.8 | 81.5
Oc1ccc2c3c1O[C@H]1c4[nH]c5ccccc5c4C[C@@]4(O)[C@@H](C2)N(CC2CC2)CC[C@]314 [Naltrindole hydrochloride] | -6.2 | -1.4 | 7 | 17.1 | 6.5 | 70.6 | 67.8 | 86 | 80.8 | 64
CC(C)NP(=O)(NC(C)C)OP(=O)(NC(C)C)NC(C)C [Tetraisopropyl pyrophosphoramide] | -19.6 | -7.5 | -3.4 | -11.9 | -1.6 | 98 | 122 | 111 | 104 | 102
NC(N)=Nc1ccc2[nH]c3c(c2c1)C[C@@]1(O)[C@H]2Cc4ccc(O)c5c4[C@@]1(CCN2CC1CC1)[C@H]3O5 [Guanidinyl-naltrindole di-trifluoroacetate] | 0.4 | -8.5 | -2.5 | -24.7 | 1.6 | 110 | 86.1 | 116 | 95.2 | 107
CC(N)Cc1c[nH]c2ccc(OCc3cccs3)cc12 (stereo not given) | -24.2 | -21.7 | -12.4 | 1.3 | 7.1 | 98 | 105 | 100 | 83.4 | 81.9
N#CCCN [3-Aminopropionitrile fumarate] | 1.5 | -12 | -6.9 | -4.9 | 4.9 | 93.9 | 133 | 92.9 | 117 | 98.3
CCCN(CCC)[C@@H]1CCc2c(F)ccc(O)c2C1 [R(+)-UH-301 hydrochloride] | -11.5 | -34.4 | -2.8 | 1.9 | -24.7 | 103 | 77.6 | 103 | 104 | 94.8
CCCN1CCC[C@@H]2Cc3n[nH]cc3C[C@H]21 [(-)-Quinpirole hydrochloride] | -7.1 | -24.3 | 3.4 | -14.2 | -20.6 | 115 | 90.2 | 92.6 | 89.8 | 128
N=C(NCCC[C@H](N)C(=O)O)N[N+](=O)[O-] [NG-Nitro-L-arginine] | -4.3 | 4.1 | 12.7 | 19 | 14 | 105 | 106 | 121 | 97 | 145
Oc1cc2c(cc1O)[C@H]1c3ccccc3CN[C@@H]1CC2 (racemic) [Dihydrexidine hydrochloride] | -1.3 | 0.9 | -4.1 | 17.5 | 7.2 | 105 | 91 | 76.7 | 61.1 | 23.3
NC(=O)CI [Iodoacetamide] | -8.8 | -1.7 | -20.6 | -18.4 | 1.6 | 110 | 97.6 | 98.8 | 79.3 | 101
COC(=O)N1CCN(C(=O)Cc2ccc(Cl)c(Cl)c2)C(CN2CCCC2)C1 (stereo not given) | 7.9 | -24.8 | 16.5 | -17.5 | 13.6 | 143 | 111 | 100 | 97 | 99.9
CN1CCc2cc(O)cc3c2[C@H]1Cc1ccc(O)c(O)c1-3 [R(-)-2,10,11-Trihydroxyaporphine hybrobromide] | -2.9 | -18.8 | 8.2 | -3.1 | 21.6 | 121 | 96.2 | 111 | 107 | 64.1

Whole records as entered above. Order of values: loss of total cells (Human fetal astrocytes [1]; 1.39 µM) [%] | loss of total cells (Human fetal astrocytes [1]; 2.78 µM) [%] | loss of total cells (Human fetal astrocytes [1]; 5.56 µM) [%] | loss of total cells (Human fetal astrocytes [1]; 11.11 µM) [%] | loss of total cells (Human fetal astrocytes [1]; 22.22 µM) [%] | synaptosome phagocytosis (Human fetal astrocytes [2]; 1.39 µM) [%] | synaptosome phagocytosis (Human fetal astrocytes [2]; 2.78 µM) [%] | synaptosome phagocytosis (Human fetal astrocytes [2]; 5.56 µM) [%] | synaptosome phagocytosis (Human fetal astrocytes [2]; 11.11 µM) [%] | synaptosome phagocytosis (Human fetal astrocytes [2]; 22.22 µM) [%]
CCCCCCCCCCCCCC(=O)O[C@@H]1[C@@H](C)[C@@]2(O)[C@@H](C=C(CO)C[C@]3(O)C(=O)C(C)=C[C@@H]23)[C@@H]2C(C)(C)[C@]12OC(C)=O [Phorbol 12-myristate 13-acetate] reads 17.1 | 22.5 | 24.7 | 38.7 | 19.8 | 88 | 91 | 88.3 | 62.8 | 81.5
C[C@@H]1O[C@@H](O[C@H]2C[C@@H](O)[C@]3(CO)[C@H]4[C@H](O)C[C@]5(C)[C@@H]([C@@H]6COC(=O)C6)CC[C@]5(O)[C@@H]4CC[C@]3(O)C2)[C@H](O)[C@H](O)[C@H]1O [Dihydroouabain] reads 19.7 | 11.1 | 1.6 | 7.6 | 23.2 | 165 | 154 | 150 | 81.6 | 63
NC(N)=Nc1ccc2[nH]c3c(c2c1)C[C@@]1(O)[C@H]2Cc4ccc(O)c5c4[C@@]1(CCN2CC1CC1)[C@H]3O5 [Guanidinyl-naltrindole di-trifluoroacetate] reads 0.4 | -8.5 | -2.5 | -24.7 | 1.6 | 110 | 86.1 | 116 | 95.2 | 107

Additional records follow:

Compound | loss of total cells (Human fetal astrocytes [1]; 1.39 µM) [%] | loss of total cells (Human fetal astrocytes [1]; 2.78 µM) [%] | loss of total cells (Human fetal astrocytes [1]; 5.56 µM) [%] | loss of total cells (Human fetal astrocytes [1]; 11.11 µM) [%] | loss of total cells (Human fetal astrocytes [1]; 22.22 µM) [%] | synaptosome phagocytosis (Human fetal astrocytes [2]; 1.39 µM) [%] | synaptosome phagocytosis (Human fetal astrocytes [2]; 2.78 µM) [%] | synaptosome phagocytosis (Human fetal astrocytes [2]; 5.56 µM) [%] | synaptosome phagocytosis (Human fetal astrocytes [2]; 11.11 µM) [%] | synaptosome phagocytosis (Human fetal astrocytes [2]; 22.22 µM) [%]
CCn1cnc2c(Nc3cccc(Cl)c3)nc(N[C@@H]3CCCC[C@@H]3N)nc21 | 4 | 2.4 | -9.7 | 39.9 | 25.2 | 98.3 | 95 | 58.4 | 30.3 | 20.1
CN[C@@H]1C[C@@H](c2ccc(Cl)c(Cl)c2)c2ccccc21 [Indatraline hydrochloride] | -19.4 | 7.7 | 23 | 20 | 18.7 | 79.5 | 131 | 117 | 69.2 | 70.3
Cc1c2ccncc2c(C)c2c1[nH]c1ccccc12 [Ellipticine] | -10.5 | -16.2 | 2.5 | -0.4 | -8 | 57.7 | 46.7 | 45.3 | 31.7 | 44.5
C[C@]12CC[C@H](O)CC1=CC[C@@H]1[C@@H]2CC[C@]2(C)C(=O)CC[C@@H]12 [trans-Dehydroandrosterone] | -8.8 | -20.5 | -9.9 | -3.1 | -4 | 121 | 113 | 104 | 98.6 | 72.2
O=C(O)[C@@H]1CCN1 [L-azetidine-2-carboxylic acid] | -3.3 | -6.9 | -17.1 | -5.8 | 13.2 | 134 | 107 | 106 | 124 | 136
CCCN1CCO[C@@H]2c3cc(O)ccc3OC[C@H]21 (racemic) [(±)-PD 128,907 hydrochloride] | 4 | -31.4 | -13.5 | -15.7 | -43.6 | 111 | 75.9 | 94.7 | 92.9 | 97.4
Ic1ccccc1CNC1C2CCN(CC2)C1C(c1ccccc1)c1ccccc1 [L-703,606 oxalate] | 16.6 | -8.6 | -1.4 | 21.9 | 54.2 | 89.7 | 67.3 | 85.1 | 49.2 | 23.1
COC[C@H]1OC(=O)c2coc3c2[C@@]1(C)C1=C(C3=O)[C@@H]2CCC(=O)[C@@]2(C)C[C@H]1OC(C)=O [Wortmannin from Penicillium funiculosum] | -4 | -24.9 | 1.1 | -5 | -19.8 | 64.8 | 65.5 | 88.5 | 79.7 | 71.5
CC(Cc1ccc(OCC(=O)O)cc1)NCC(O)c1cccc(Cl)c1 (stereo not given) | -25.7 | -11.7 | -13.4 | -24.7 | -2.6 | 102 | 100 | 66.5 | 98.2 | 121
O=[N+]([O-])c1ccc2nc(N3CCNCC3)ccc2c1 [Quipazine, 6-nitro-, maleate] | -0.9 | -23.7 | -12.4 | -11.1 | -32.9 | 86.2 | 84.9 | 91.9 | 98.1 | 85.5
N[C@H](CCCCCP(=O)(O)O)C(=O)O [D(-)-2-Amino-7-phosphonoheptanoic acid] | -15 | -9.3 | 7.8 | 6.7 | 3.4 | 96.4 | 96.1 | 95.6 | 87.3 | 93.1
CCc1c(C(=O)OC)ncc2[nH]c3cc(OC)c(OC)cc3c12 [Methyl 6,7-dimethoxy-4-ethyl-beta-carboline-3-carboxylate] | -8.8 | -23.1 | 0 | -13.9 | 3.2 | 90.5 | 100 | 120 | 94.5 | 92.6
NC(=O)CN1CC(O)CC1=O (stereo not given) [Oxiracetam] | -5.2 | 3.2 | 11.7 | 4.8 | 0.9 | 111 | 109 | 79.4 | 98 | 135
CN1CCC23CCCCC2C1Cc1ccc(O)cc13 [Dextrorphan D-tartrate] | -9.6 | 0.9 | -7.4 | -12.1 | -20 | 90.7 | 131 | 70.6 | 94.9 | 69.3
NCCc1c[nH]c2ccc(C(N)=O)cc12 [5-Carboxamidotryptamine maleate] | 13 | -23.1 | -4.9 | -13.9 | 0 | 130 | 83.6 | 80.6 | 109 | 115
COc1ccc2c3c1O[C@H]1C(=O)CC[C@@]4(O)C(C2)N(CC2CC2)CCC314 (single isomer, unassigned; (-)) [(-)-3-Methoxynaltrexone hydrochloride] | -12.8 | 5 | 5.2 | 32.4 | 20.6 | 117 | 99.7 | 98 | 110 | 92.9
C[C@@H]1O[C@H](C[N+](C)(C)C)CS1 [OXA-22 iodide] | -18 | -6.8 | -9.1 | -19.3 | -6.4 | 72.7 | 75.9 | 119 | 97.7 | 110
CCCCCCC(C)(C)c1ccc([C@@H]2C[C@H](O)CC[C@H]2CCCO)c(O)c1 | -13.9 | -13.5 | -12.4 | -5.8 | 10.2 | 116 | 73.9 | 118 | 107 | 66.9
C[Se]C[C@H](N)C(=O)O [Se-(methyl)selenocysteine hydrochloride] | -10 | -3.2 | 6.1 | 1.9 | 1.9 | 122 | 131 | 72.5 | 109 | 97.7
CCCN1CC[C@@H]2c3cc(O)ccc3CC[C@@H]21 (racemic) [cis(+/-)-8-OH-PBZI hydrobromide] | -24.2 | -7.7 | 20.2 | 19 | 0 | 104 | 78.2 | 98.6 | 105 | 80.8
CN1CCC(c2c[nH]c3ccc(O)cc23)CC1 | -19.1 | -25 | -12.4 | -14.8 | -0.4 | 104 | 102 | 125 | 107 | 109
